PMC4691241, “Activation of ULK Kinase and Autophagy by GABARAP Trafficking from the Centrosome Is Regulated by WAC and GM130” (Molecular Cell, 2015)

By UniProt entry, the sequences of proteins in these tests, tags left out.
UniProt Q5VTR2: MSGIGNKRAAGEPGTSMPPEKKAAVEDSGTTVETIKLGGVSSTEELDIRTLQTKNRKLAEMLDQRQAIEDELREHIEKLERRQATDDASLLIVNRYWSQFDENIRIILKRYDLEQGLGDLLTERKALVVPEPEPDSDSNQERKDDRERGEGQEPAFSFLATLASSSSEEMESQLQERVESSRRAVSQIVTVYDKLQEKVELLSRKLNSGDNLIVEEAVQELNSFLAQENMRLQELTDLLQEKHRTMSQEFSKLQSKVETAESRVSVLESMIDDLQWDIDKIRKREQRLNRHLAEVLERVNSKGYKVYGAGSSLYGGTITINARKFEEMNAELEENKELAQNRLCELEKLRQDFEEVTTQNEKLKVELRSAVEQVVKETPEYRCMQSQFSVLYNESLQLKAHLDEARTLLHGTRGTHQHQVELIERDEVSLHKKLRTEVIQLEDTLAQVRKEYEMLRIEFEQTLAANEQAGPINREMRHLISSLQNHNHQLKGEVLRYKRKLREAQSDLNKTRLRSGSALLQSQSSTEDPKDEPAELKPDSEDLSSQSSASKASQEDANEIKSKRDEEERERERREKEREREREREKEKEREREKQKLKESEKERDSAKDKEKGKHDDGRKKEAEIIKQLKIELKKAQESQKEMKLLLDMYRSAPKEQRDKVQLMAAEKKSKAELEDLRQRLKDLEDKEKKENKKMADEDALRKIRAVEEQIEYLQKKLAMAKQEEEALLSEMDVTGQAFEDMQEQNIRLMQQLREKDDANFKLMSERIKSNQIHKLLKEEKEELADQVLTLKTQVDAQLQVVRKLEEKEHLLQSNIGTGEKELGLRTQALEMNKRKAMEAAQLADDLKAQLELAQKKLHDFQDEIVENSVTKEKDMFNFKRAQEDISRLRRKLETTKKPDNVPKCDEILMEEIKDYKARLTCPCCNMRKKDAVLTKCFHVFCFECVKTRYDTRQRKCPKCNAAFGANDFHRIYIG

Legend:
[1] = biological target: T1, WAC (WW domain-containing adaptor with coiled coil), endogenous (human (endogenous in HEK293)) (UniProt Q9BTA9); assay: affinity purification with mass spectrometry; immunoprecipitation of WAC from fed HEK293 cells; SDS-PAGE, gel slices, tryptic digestion
T1 sequence: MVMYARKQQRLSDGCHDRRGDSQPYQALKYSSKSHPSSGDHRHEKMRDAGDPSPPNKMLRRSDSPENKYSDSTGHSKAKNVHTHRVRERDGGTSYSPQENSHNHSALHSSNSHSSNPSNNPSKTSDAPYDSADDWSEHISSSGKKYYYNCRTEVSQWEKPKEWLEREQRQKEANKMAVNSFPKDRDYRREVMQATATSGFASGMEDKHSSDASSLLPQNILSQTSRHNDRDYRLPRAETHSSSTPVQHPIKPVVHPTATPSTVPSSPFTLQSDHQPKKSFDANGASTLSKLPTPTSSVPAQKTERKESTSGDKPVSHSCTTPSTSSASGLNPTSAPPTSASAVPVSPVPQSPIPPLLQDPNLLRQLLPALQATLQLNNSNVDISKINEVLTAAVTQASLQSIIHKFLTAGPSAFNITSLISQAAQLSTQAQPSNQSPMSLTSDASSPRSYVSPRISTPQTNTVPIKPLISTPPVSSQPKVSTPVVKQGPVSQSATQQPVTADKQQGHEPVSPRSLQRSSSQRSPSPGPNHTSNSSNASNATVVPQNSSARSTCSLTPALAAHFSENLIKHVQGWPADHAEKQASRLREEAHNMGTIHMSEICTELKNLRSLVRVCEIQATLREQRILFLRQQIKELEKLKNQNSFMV

WAC-FLAP (human) = biological target: T2, WAC-FLAP (human) (UniProt Q9BTA9); assay: affinity purification with mass spectrometry; GFP-TRAP / GFP immunoprecipitation from fed HeLa WAC-FLAP cells; SDS-PAGE, gel slices, tryptic digestion
T2 sequence: T1 sequence

binding [1]: binds
binding (WAC-FLAP (human)): binds
Molecule: RNF20, endogenous (from UniProt Q5VTR2 1-975)

binding [1]: binds
binding (WAC-FLAP (human)): binds
B1: GM130 (GOLGA2), endogenous (protein, UniProt Q08379 1-1002)
chain: MWPQPRLPPRPAMSEETRQSKLAAAKKKLREYQQRNSPGVPTGAKKKKKIKNGSNPETTTSGGCHSPEDTPKDNAATLQPSDDTVLPGGVPSPGASLTSMAASQNHDADNVPNLMDETKTFSSTESLRQLSQQLNGLVCESATCVNGEGPASSANLKDLESRYQQLAVALDSSYVTNKQLNITIEKLKQQNQEITDQLEEEKKECHQKQGALREQLQVHIQTIGILVSEKAELQTALAHTQHAARQKEGESEDLASRLQYSRRRVGELERALSAVSTQQKKADRYNKELTKERDALRLELYKNTQSNEDLKQEKSELEEKLRVLVTEKAGMQLNLEELQKKLEMTELLLQQFSSRCEAPDANQQLQQAMEERAQLEAHLGQVMESVRQLQMERDKYAENLKGESAMWRQRMQQMSEQVHTLREEKECSMSRVQELETSLAELRNQMAEPPPPEPPAGPSEVEQQLQAEAEHLRKELEGLAGQLQAQVQDNEGLSRLNREQEERLLELERAAELWGEQAEARRQILETMQNDRTTISRALSQNRELKEQLAELQSGFVKLTNENMEITSALQSEQHVKRELGKKLGELQEKLSELKETVELKSQEAQSLQQQRDQYLGHLQQYVAAYQQLTSEKEVLHNQLLLQTQLVDQLQQQEAQGKAVAEMARQELQETQERLEAATQQNQQLRAQLSLMAHPGEGDGLDREEEEDEEEEEEEAVAVPQPMPSIPEDLESREAMVAFFNSAVASAEEEQARLRGQLKEQRVRCRRLAHLLASAQKEPEAAAPAPGTGGDSVCGETHRALQGAMEKLQSRFMELMQEKADLKERVEELEHRCIQLSGETDTIGEYIALYQSQRAVLKERHREKEEYISRLAQDKEEMKVKLLELQELVLRLVGDRNEWHGRFLAAAQNPADEPTSGAPAPQELGAANQQGDLCEVSLAGSVEPAQGEAREGSPRDNPTAQQIMQLLREMQNPRERPGLGSNPCIPFFYRADENDEVKITVI

Results are given in words; binding and its absence hold for the method and conditions named. Binding seen in cells or lysates may run through a third protein. A yes stands for co-enrichment or nearness to the bait. Other partners may have been found. One block for each molecule: values may come before it.
